Experimental data: paper PMC5430426
Results are given in words; binding and its absence hold for the method and conditions named. Some results given as binding are weak or reduced against the parent protein; the word gives no strength.

Target: T1, Ubiquinol-cytochrome-c reductase complex core protein 1 (mouse (endogenous in liver)) (UniProt Q9CZ13)
T1 sequence: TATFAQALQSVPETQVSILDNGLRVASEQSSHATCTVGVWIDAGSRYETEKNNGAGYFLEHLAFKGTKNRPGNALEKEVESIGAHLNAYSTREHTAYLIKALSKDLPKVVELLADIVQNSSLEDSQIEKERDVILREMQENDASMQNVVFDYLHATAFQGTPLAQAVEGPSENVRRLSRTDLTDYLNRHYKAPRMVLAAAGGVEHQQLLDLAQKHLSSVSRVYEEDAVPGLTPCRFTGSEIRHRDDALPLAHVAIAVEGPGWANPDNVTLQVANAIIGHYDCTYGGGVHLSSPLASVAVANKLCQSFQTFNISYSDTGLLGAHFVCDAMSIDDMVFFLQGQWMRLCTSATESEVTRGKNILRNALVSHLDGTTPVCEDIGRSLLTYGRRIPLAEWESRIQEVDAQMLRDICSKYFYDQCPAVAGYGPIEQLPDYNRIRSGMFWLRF
Assay: native gel or EMSA; blue native polyacrylamide gel electrophoresis of digitonin-solubilized isolated liver mitochondria (P95 mice, wild type and Bcs1l G/G, control or ketogenic diet), then immunoblotting of intact complexes and supercomplexes

B1: Rieske iron-sulfur protein (protein, UniProt Q9CR68 79-274)
chain: SHTDVKVPDFSDYRRAEVLDSTKSSKESSEARKGFSYLVTATTTVGVAYAAKNVVSQFVSSMSASADVLAMSKIEIKLSDIPEGKNMAFKWRGKPLFVRHRTKKEIDQEAAVEVSQLRDPQHDLDRVKKPEWVILIGVCTHLGCVPIANAGDFGGYYCPCHGSHYDASGRIRKGPAPLNLEVPAYEFTSDDVVVVG
In the case of B1, the binding is reported as “binds”.
